According to PMC2770170:
No constants are given. Whether binding was seen depends on the method and setting. A result given as binding can be weak or reduced; the word gives no strength.

By UniProt entry, the sequences of proteins in these tests, tags left out. Where a name states a change or a piece, a line headed by the entry shows the natural chain unless it says otherwise.
UniProt Q22145: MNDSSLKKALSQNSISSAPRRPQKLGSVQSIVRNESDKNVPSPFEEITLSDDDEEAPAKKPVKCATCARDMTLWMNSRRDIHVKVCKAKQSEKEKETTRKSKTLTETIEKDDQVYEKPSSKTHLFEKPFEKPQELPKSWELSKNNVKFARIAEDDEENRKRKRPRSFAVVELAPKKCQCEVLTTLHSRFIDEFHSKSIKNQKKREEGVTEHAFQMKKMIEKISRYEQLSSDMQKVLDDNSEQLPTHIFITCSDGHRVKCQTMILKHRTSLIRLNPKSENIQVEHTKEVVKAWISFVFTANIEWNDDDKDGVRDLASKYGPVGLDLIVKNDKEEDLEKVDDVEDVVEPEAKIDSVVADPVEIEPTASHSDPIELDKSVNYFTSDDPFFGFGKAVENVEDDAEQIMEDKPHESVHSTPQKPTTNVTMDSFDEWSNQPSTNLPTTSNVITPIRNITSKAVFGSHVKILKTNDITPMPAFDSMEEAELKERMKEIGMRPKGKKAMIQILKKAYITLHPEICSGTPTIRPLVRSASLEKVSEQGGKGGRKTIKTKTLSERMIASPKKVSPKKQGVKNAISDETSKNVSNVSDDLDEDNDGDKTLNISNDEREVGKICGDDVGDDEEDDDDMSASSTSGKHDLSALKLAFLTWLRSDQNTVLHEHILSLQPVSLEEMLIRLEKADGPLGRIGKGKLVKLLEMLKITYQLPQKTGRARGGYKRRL

Tests used:
[1] = target: XPF-1 full length (C. elegans) (UniProt G5EBZ1); assay: two-hybrid; other combinations of yeast strains and plasmids (Figure S12): pVV213/pVV212 in AH109/Y187 and Mav203/Mav103 diploids, pDEST22/pDEST32 in Y8800/Y8930 diploids; 30°C
[2] = target: XPF-1 full length (C. elegans) (UniProt G5EBZ1); assay: two-hybrid; Gal4 AD (pVV213) and Gal4 DB (pVV212) fusions in Y8800/Y8930 diploid yeast; scored by growth on SC-Leu-Trp-His, SC-Leu-Trp-His+1 mM 3-AT and SC-Leu-Trp-Ade plates; 30°C
[3] = target: HIM-18 full length (C. elegans) (UniProt Q22145); assay: two-hybrid; other combinations of yeast strains and plasmids (Figure S12): pVV213/pVV212 in AH109/Y187 and Mav203/Mav103 diploids, pDEST22/pDEST32 in Y8800/Y8930 diploids; 30°C
[4] = target: HIM-18 full length (C. elegans) (UniProt Q22145); assay: two-hybrid; Gal4 AD (pVV213) and Gal4 DB (pVV212) fusions in Y8800/Y8930 diploid yeast; scored by growth on SC-Leu-Trp-His, SC-Leu-Trp-His+1 mM 3-AT and SC-Leu-Trp-Ade plates; 30°C

binding [1] | binding [2] | binding [3] | binding [4] | Substance
binds | binds |  |  | ERCC-1 full length (from UniProt Q93456)
binds | binds |  |  | HIM-18 full length (from UniProt Q22145)
 |  | binds | binds | XPF-1 full length (from UniProt G5EBZ1)
